Results deposited as PubChem BioAssay AID1259254 (NCATS, 2017)
Aim: 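Genome-wide screen for genes that prevent DNA re-replication in cancer cells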 (primary screen). System: human HCT116 colorectal cancer cells. Knock-down reagent: single siRNA against human genes. Timing: 3 days. Read-out: 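Nuclei stained with Hoechst and imaged; cell-cycle phase assigned by DNA content; G2 share scaled per plate, non-targeting siRNA 0%, GMNN siRNA 100%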. Scale: G2 robust z-score: higher = more G2 cells, more excess DNA replication. Call rule: 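An siRNA counts as active if its G2 robust z-score lies at least 5 MADs above the screen median; here such calls match roughly 38% of GMNN control or more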.
This is an unselected part of about 59,000 reagents tested. About 1,550 of them (2.6%) count as active. 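G2 share is only a proxy for re-replication; each gene was hit by three separate siRNAs, and active genes were retested.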 Entries without a mark were called inactive. The numbers tell different reagents against one gene apart. Further read-outs or replicates are left out here. The record does not give: the amount of reagent.

The opening 2 records, ahead of the listing:
| gene knocked down | reagent no. | G2 robust z-score |
| --- | --- | --- |
| DMAC1 | 1 | 0.735 |
| DMAC1 | 2 | 2.08 |

The listing, from the start:
| gene knocked down | reagent no. | G2 robust z-score |
| --- | --- | --- |
| DMAC1 | 1 | 0.735 |
| DMAC1 | 2 | 2.08 |
| DMAC1 | 3 | 0.245 |
| RRP9 | 1 | -1.32 |
| RRP9 | 2 | 0.121 |
| RRP9 | 3 | 2.71 |
| ZNF672 | 1 | -0.703 |
| ZNF672 | 2 | -1.37 |
| ZNF672 | 3 | -0.129 |
| KBTBD12 | 1 | -0.976 |
| KBTBD12 | 2 | -0.0615 |
| KBTBD12 | 3 | -0.356 |
| ALDH1L2 | 1 | -0.671 |
| ALDH1L2 | 2 | 0.476 |
| ALDH1L2 | 3 | -0.531 |
| ADGRE2 | 1 | -1.36 |
| ADGRE2 | 2 | -1.06 |
| ADGRE2 | 3 | -0.765 |
| RNASE4 | 1 | 3.56 |
| RNASE4 | 2 | 0.412 |
| RNASE4 | 3 | -1.03 |
| SDR39U1 | 1 | 2.06 |
| SDR39U1 | 2 | 0.271 |
| SDR39U1 | 3 | -0.421 |
| FOXP1 | 1 | 0.184 |
| FOXP1 | 2 | 0.669 |
| FOXP1 | 3 | 1.56 |
| CA12 | 1 | -1.07 |
| CA12 | 2 | 5.5 (active) |
| CA12 | 3 | 5.1 (active) |
